{
  "source": "patent US20250002967A1",
  "about": "“METHODS FOR DETECTING MICROORGANISMS BY ADDING A FLUORESCENT DYE DIRECTLY TO THE SOLID GROWTH MEDIUM” (DIAMIDEX, priority 2021, published 2025)",
  "system": "Clostridium sporogenes ATCC 19404",
  "assay": "Labelling and detection of anaerobic bacterial strains",
  "assay_type": "cell-based",
  "conditions": "C. sporogenes; MCE membrane; TSA agar; 15 h at 35° C. in anaerobic conditions",
  "note": "At least one compound was matched to its structure with a doubt left.",
  "data": [
    {"smiles": "N=C(N)c1ccc(-c2cc3ccc(C(=N)N)cc3[nH]2)cc1", "note": "[DAPI, 4′,6-diamidino-2-phenylindole]", "values": [
      {"measurement": "Labelling and detection", "value": "+"}
    ]}
  ]
}
